This is one part of the list.
Legend:
Experiment in all cases: log2 fold change, soluble protein after heating vs DMSO (PISA); higher = thermal stabilisation; K562 cells, 10 uM, 30 min; active = over 0.2 and 3.5 SD of the protein, either way, in both replicates (recomputed)
[1] = compound: NC(=O)Nc1cc(-c2cccc(F)c2)sc1C(=O)N[C@H]1CCCNC1
In short: (§1)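 Quantification of soluble protein used TMTpro 16plex LC-MS/MS, with channel sums equalised. Samples were the supernatant after 21,000xg for 90 min of pooled aliquots from K562 cells (2×10^6 cells/mL) treated with 10 μM compound for 30 min, heated for 3 min over 48°C-58°C, and extracted in PBS with 0.5% NP-40 at 4°C. Values, from duplicates, describe thermal stability against control samples on a log2 fold-change scale.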

Chains of the proteins cited; added tags and fusions are not shown. Lines headed by an entry give the natural chain unless they say otherwise; changes in a name come on top.
UniProt P63104: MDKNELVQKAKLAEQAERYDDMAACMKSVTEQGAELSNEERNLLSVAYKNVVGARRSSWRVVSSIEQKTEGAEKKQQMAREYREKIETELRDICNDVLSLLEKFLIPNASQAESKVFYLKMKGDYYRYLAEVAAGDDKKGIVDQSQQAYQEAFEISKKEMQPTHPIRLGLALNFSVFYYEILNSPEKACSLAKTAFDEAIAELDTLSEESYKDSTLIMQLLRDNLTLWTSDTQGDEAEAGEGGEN
UniProt O14980, whole entry, looked up: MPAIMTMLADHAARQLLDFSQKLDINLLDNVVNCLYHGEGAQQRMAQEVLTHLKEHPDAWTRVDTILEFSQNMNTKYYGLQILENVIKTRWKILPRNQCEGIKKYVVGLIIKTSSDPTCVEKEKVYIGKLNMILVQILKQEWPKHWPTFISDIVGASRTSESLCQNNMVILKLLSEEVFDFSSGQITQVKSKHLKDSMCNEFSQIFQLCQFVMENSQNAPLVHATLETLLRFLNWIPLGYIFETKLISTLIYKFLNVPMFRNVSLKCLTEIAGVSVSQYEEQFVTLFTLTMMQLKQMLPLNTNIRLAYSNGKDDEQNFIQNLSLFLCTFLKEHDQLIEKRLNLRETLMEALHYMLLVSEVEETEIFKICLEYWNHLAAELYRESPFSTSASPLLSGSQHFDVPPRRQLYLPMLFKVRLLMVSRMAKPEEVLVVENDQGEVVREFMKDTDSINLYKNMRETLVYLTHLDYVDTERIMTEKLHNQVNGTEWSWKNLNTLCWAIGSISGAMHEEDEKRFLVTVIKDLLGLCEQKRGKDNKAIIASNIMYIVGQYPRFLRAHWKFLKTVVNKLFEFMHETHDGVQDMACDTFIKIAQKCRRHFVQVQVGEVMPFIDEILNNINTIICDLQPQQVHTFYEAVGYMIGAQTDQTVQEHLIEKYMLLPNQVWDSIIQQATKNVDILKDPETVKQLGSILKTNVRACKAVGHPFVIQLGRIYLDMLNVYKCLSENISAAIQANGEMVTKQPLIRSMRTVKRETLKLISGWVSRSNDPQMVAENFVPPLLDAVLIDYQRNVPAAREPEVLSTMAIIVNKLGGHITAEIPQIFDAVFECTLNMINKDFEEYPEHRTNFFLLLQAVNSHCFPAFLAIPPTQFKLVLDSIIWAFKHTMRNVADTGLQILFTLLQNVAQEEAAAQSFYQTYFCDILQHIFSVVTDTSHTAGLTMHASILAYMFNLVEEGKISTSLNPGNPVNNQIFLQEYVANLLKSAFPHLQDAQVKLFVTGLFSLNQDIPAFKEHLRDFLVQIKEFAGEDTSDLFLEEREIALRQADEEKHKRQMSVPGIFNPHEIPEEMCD
UniProt Q9Y5A9: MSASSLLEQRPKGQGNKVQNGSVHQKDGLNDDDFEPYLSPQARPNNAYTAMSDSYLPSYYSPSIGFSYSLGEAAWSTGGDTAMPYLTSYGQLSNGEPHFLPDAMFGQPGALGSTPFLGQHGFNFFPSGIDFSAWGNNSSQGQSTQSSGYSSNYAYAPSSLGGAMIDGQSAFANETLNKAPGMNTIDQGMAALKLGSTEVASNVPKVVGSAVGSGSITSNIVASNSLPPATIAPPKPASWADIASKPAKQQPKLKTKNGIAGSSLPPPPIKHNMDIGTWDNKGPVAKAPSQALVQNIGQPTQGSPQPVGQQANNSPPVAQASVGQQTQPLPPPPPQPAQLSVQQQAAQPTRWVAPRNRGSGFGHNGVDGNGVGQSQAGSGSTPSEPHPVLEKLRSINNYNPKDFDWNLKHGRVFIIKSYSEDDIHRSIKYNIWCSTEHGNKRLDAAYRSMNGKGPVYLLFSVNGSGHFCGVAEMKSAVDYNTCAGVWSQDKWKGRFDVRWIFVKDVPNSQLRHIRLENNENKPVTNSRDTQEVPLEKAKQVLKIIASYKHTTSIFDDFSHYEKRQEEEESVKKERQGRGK
UniProt P61981: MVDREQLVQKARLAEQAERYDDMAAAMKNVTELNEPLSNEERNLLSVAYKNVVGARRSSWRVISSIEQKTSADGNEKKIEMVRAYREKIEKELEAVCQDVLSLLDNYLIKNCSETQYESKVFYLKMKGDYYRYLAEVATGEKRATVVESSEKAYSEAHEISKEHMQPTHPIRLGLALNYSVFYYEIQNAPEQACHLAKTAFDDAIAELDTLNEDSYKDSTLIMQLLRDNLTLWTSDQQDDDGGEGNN
UniProt Q14202: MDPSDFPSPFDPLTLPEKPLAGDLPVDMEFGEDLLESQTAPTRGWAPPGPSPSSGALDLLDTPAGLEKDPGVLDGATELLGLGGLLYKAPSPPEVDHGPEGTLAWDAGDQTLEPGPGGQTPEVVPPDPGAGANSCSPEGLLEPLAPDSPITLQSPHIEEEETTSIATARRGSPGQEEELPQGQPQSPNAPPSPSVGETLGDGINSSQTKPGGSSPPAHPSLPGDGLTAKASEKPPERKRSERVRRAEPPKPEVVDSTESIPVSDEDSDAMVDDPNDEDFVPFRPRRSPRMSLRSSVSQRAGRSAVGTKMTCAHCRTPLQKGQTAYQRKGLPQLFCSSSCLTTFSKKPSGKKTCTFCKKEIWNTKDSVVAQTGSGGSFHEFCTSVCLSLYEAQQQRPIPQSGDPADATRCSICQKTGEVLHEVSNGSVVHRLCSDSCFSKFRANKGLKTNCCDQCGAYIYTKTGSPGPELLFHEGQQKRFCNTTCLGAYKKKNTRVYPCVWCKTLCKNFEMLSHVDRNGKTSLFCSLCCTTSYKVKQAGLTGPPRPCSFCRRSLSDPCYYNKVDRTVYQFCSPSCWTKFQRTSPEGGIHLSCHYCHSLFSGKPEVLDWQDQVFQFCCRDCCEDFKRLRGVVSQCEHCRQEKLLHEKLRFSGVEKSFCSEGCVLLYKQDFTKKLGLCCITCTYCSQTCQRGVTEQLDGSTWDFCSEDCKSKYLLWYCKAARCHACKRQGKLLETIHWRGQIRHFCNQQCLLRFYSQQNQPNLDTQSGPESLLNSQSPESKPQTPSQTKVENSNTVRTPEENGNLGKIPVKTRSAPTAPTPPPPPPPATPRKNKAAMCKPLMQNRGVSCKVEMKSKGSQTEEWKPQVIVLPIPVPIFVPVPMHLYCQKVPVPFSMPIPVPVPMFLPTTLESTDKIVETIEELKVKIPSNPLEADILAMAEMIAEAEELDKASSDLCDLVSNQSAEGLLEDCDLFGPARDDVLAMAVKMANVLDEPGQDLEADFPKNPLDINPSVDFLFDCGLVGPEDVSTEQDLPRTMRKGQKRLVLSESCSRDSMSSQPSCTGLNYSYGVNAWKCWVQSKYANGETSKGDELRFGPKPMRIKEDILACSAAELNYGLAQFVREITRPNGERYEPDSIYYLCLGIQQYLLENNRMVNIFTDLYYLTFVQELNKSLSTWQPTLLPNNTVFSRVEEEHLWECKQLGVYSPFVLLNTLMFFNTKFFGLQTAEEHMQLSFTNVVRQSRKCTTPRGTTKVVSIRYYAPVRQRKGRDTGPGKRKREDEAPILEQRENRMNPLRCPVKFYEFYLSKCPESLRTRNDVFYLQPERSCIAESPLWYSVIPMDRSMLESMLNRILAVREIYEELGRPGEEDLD
UniProt P31946: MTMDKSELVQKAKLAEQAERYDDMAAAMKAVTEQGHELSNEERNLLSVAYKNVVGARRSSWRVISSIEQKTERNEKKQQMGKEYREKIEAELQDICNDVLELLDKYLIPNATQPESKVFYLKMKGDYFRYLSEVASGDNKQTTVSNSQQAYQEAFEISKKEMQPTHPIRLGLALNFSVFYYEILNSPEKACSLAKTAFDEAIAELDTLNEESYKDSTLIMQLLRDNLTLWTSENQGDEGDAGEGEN
UniProt Q7Z2W4: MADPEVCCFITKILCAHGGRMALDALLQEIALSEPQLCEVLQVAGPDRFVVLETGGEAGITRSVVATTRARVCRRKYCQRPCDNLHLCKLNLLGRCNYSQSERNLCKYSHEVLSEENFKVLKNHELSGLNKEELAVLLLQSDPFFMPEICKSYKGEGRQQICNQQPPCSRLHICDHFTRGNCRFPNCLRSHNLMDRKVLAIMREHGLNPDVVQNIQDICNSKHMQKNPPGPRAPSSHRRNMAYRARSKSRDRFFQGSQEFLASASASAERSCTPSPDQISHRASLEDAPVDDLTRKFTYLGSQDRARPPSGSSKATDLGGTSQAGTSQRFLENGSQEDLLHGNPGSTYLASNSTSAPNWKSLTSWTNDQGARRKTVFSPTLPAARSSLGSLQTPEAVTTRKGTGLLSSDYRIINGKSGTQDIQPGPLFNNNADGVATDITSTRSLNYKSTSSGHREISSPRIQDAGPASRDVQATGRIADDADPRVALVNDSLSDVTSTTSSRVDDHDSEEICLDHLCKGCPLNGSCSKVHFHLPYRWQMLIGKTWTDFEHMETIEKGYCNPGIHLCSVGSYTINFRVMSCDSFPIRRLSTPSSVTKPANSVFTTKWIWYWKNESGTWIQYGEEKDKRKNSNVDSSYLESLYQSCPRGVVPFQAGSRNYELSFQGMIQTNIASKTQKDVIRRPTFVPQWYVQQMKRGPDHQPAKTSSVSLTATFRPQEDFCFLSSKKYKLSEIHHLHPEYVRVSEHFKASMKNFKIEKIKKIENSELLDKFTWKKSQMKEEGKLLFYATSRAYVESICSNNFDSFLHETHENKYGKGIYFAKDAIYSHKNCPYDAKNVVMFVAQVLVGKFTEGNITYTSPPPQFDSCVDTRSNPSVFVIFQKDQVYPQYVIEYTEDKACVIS
UniProt Q8WU90: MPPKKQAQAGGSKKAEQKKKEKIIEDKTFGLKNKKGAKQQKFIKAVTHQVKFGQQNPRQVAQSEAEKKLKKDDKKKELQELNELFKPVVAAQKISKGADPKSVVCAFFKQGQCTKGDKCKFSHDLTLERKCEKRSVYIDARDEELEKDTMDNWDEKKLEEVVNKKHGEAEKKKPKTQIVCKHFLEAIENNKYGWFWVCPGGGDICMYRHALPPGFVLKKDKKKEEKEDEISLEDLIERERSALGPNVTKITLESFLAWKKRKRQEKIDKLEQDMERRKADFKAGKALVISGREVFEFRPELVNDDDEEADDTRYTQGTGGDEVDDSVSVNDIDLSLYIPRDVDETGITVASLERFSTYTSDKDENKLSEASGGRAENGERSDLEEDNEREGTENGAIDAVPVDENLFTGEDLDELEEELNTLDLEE
UniProt O15498: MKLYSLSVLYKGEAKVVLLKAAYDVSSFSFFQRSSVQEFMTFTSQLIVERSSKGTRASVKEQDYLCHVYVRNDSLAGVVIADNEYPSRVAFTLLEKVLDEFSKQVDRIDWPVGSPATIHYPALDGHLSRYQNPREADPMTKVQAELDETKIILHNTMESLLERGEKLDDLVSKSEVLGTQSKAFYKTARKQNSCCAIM
UniProt O43592: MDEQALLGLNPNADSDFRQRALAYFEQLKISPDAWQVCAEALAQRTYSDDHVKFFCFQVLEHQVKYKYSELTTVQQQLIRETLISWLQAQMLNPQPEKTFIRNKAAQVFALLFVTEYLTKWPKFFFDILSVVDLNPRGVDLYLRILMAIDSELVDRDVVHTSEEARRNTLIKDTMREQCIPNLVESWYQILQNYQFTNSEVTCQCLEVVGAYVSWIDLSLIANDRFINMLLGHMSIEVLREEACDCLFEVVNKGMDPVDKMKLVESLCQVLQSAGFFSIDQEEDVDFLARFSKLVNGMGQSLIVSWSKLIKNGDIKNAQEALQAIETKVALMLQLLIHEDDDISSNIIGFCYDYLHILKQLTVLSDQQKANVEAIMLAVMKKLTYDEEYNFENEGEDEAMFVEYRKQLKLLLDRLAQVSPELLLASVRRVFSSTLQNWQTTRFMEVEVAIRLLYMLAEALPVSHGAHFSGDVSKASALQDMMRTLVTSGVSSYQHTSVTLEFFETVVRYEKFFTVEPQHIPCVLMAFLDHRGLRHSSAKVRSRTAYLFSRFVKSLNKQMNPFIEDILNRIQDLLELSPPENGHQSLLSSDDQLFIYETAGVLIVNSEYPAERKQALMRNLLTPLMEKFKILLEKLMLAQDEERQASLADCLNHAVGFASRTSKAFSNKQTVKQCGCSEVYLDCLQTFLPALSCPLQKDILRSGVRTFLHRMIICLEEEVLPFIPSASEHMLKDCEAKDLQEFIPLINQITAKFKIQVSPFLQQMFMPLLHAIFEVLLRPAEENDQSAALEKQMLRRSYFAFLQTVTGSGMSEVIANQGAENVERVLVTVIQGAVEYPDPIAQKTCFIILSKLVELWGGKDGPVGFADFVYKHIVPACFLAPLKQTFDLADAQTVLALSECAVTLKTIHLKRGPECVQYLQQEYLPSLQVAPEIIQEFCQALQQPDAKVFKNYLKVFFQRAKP
UniProt Q9GZM5: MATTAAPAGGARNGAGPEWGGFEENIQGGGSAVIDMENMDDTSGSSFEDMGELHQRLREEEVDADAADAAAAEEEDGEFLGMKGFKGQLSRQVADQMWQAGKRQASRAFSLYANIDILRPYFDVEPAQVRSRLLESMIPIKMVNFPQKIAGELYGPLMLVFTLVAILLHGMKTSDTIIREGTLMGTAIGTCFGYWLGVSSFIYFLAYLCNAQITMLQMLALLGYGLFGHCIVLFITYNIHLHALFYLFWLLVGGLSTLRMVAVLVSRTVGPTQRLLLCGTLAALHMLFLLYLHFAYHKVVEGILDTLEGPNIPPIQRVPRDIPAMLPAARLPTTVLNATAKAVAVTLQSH

[2] = compound: NC(=O)c1cnc(N[C@@H]2CCCC[C@@H]2N)nc1Nc1cccc(-n2nccn2)c1
In short: as §1

[3] = compound: NC1(c2ccc(-c3nc4ccn5c(=O)[nH]nc5c4cc3-c3ccccc3)cc2)CCC1
In short: as §1

[4] = compound: NCC(=O)Nc1ccc(-n2nc(C(F)(F)F)cc2-c2ccc3c(ccc4ccccc43)c2)cc1
In short: as §1

[5] = compound: Nc1ccccc1NC(=O)c1ccc(CNC(=O)OCc2cccnc2)cc1 [entinostat]
In short: as §1

[6] = compound: O=C(CCCCCCC(=O)Nc1ccccc1)NO [vorinostat]
In short: as §1

[7] = compound: O=C(CCCCCCNC(=O)c1cnc(N(c2ccccc2)c2ccccc2Cl)nc1)NO [citarinostat]
In short: as §1

[8] = compound: O=C(O)c1ccc2c(c1)nc(Nc1cccc(Cl)c1)c1ccncc12 [silmitasertib]
In short: as §1

[9] = compound: O=C1NC(=O)C(c2cnc3ccccn23)=C1c1cn2c3c(cc(F)cc13)CN(C(=O)N1CCCCC1)CC2
In short: as §1

[10] = compound: c1cc(OCCN2CCCCC2)cc(-c2n[nH]c3ccc(-c4nnc[nH]4)cc23)c1
In short: as §1

Measured: log2 fold change

YTHDF3 (UniProt Q7Z739)
inactive: [1] -0.01 | [2] -0.032 | [3] -0.002 | [4] -0.034 | [5] 0.006 | [6] 0.072 | [7] -0.016 | [8] -0.005 | [9] -0.008 | [10] -0.034

ZMIZ1 (UniProt Q9ULJ6)
inactive: [1] 0.001 | [2] -0.029 | [3] -0.081 | [4] -0.025 | [5] 0.028 | [6] 0.017 | [7] 0.027 | [8] -0.015 | [9] 0.02 | [10] -0.016

ZDHHC3 isoform 2 (UniProt Q9NYG2)
inactive: [1] -0.11 | [2] -0.089 | [3] -0.069 | [4] -0.052 | [5] 0.03 | [6] 0.118 | [7] 0.047 | [8] 0.048 | [9] -0.105 | [10] -0.007

YWHAZ (UniProt P63104)
inactive: [1] 0.098 | [2] 0.108 | [3] 0.066 | [4] 0.084 | [5] 0.032 | [6] -0.013 | [7] -0.013 | [8] -0.078 | [9] -0.025 | [10] 0.05

ZC3H18 (UniProt Q86VM9)
inactive: [1] -0.037 | [2] -0.221 | [3] 0.032 | [4] -0.012 | [5] 0.021 | [6] 0.091 | [7] 0.028 | [8] 0.135 | [9] 0.03 | [10] -0.147

ZFYVE19 (UniProt Q96K21)
inactive: [1] 0.02 | [2] 0.084 | [3] 0.058 | [4] -0.007 | [5] -0.039 | [6] 0.024 | [7] -0.059 | [8] -0.019 | [9] 0.045 | [10] 0.023

XPO1 (UniProt O14980)
inactive: [1] 0.034 | [2] -0.056 | [4] -0.026 | [5] 0.082 | [6] 0.052 | [7] 0.092 | [8] 0.025 | [9] 0.009 | [10] -0.054
active: [3] -0.249

YTHDF2 (UniProt Q9Y5A9)
inactive: [1] -0.057 | [2] -0.006 | [3] -0.003 | [4] 0.078 | [5] 0.002 | [6] 0.022 | [7] -0.015 | [8] 0.034 | [9] -0.007 | [10] -0.05

ZFP91 (UniProt Q96JP5)
inactive: [1] -0.044 | [2] -0.001 | [3] 0.144 | [4] 0.036 | [5] -0.054 | [6] 0.013 | [7] -0.053 | [8] 0.086 | [9] 0.073 | [10] -0.161

YIF1B (UniProt Q5BJH7)
inactive: [1] -0.009 | [2] -0.043 | [3] -0.045 | [4] 0.062 | [5] 0.081 | [6] -0.041 | [7] 0.019 | [8] 0.027 | [9] 0.064 | [10] -0.057

XPO6 (UniProt Q96QU8)
inactive: [1] 0.068 | [2] -0.103 | [3] -0.154 | [4] -0.118 | [5] 0.025 | [6] 0.048 | [7] 0.085 | [8] 0.01 | [9] 0.099 | [10] -0.038

ZBTB8OS (UniProt Q8IWT0)
inactive: [1] -0.016 | [2] -0.142 | [3] -0.198 | [4] -0.097 | [5] 0.026 | [6] -0.014 | [7] -0.006 | [8] 0.015 | [9] -0.081 | [10] -0.068

XPO5 (UniProt Q9HAV4)
inactive: [1] -0.025 | [2] -0.068 | [4] -0.074 | [5] 0.046 | [6] 0.065 | [7] 0.068 | [8] -0.003 | [9] -0.022 | [10] -0.042
active: [3] -0.234

YWHAG (UniProt P61981)
inactive: [1] 0.029 | [2] 0.086 | [3] 0.033 | [4] 0.16 | [5] 0.001 | [6] 0.014 | [7] 0 | [8] -0.097 | [9] -0.049 | [10] 0.11

ZMYM3 (UniProt Q14202)
inactive: [1] -0.042 | [2] 0.11 | [3] -0.036 | [4] 0.073 | [5] -0.073 | [6] 0.073 | [7] -0.033 | [8] -0.012 | [9] 0.003 | [10] 0.029

XRCC4 (UniProt Q13426)
inactive: [1] -0.041 | [2] -0.062 | [3] -0.039 | [4] -0.022 | [5] -0.055 | [6] -0.068 | [7] 0.045 | [8] 0.022 | [9] -0.013 | [10] -0.036

ZNF207 isoform 4 (UniProt O43670)
inactive: [1] 0.066 | [2] -0.012 | [3] 0.047 | [4] -0.003 | [5] 0.006 | [6] 0.028 | [7] 0.057 | [8] 0.019 | [9] 0.049 | [10] -0.039

Random excerpt: 2 entries already listed, in no set order.
ZDHHC3 isoform 2 (UniProt Q9NYG2)
inactive: [1] -0.11 | [2] -0.089 | [3] -0.069 | [4] -0.052 | [5] 0.03 | [6] 0.118 | [7] 0.047 | [8] 0.048 | [9] -0.105 | [10] -0.007

ZFP91 (UniProt Q96JP5)
inactive: [1] -0.044 | [2] -0.001 | [3] 0.144 | [4] 0.036 | [5] -0.054 | [6] 0.013 | [7] -0.053 | [8] 0.086 | [9] 0.073 | [10] -0.161

(further entries)

ZNF207 isoform 2 (UniProt O43670)
inactive: [1] -0.142 | [2] -0.266 | [3] -0.113 | [4] -0.124 | [5] 0.061 | [6] 0.065 | [7] 0.008 | [8] 0.043 | [9] 0.146 | [10] -0.163

YWHAB (UniProt P31946)
inactive: [1] -0.027 | [2] -0.05 | [3] -0.056 | [4] -0.007 | [5] -0.042 | [6] -0.02 | [7] 0.001 | [8] -0.014 | [9] -0.04 | [10] -0.019

ZC3HAV1 (UniProt Q7Z2W4)
inactive: [1] 0.065 | [2] 0.081 | [3] 0.246 | [4] 0.07 | [5] 0.01 | [6] -0.015 | [7] -0.05 | [8] 0.171 | [9] 0.279 | [10] -0.119

ZFYVE27 isoform 2 (UniProt Q5T4F4)
inactive: [1] -0.007 | [2] -0.071 | [3] -0.056 | [4] -0.127 | [5] 0.015 | [6] 0.103 | [7] -0.006 | [8] 0.033 | [9] -0.067 | [10] -0.154

ZER1 (UniProt Q7Z7L7)
inactive: [1] -0.046 | [2] -0.001 | [3] 0 | [4] 0.03 | [5] 0.049 | [6] 0.055 | [7] 0.192 | [8] 0.028 | [9] -0.198 | [10] 0.023

ZC3H15 (UniProt Q8WU90)
inactive: [1] -0.058 | [2] 0.019 | [3] 0.081 | [4] 0.031 | [5] -0.053 | [6] -0.018 | [7] -0.033 | [8] 0.005 | [9] 0.016 | [10] -0.059

YME1L1 (UniProt Q96TA2)
inactive: [1] -0.012 | [2] -0.024 | [3] -0.044 | [4] -0.045 | [5] -0.001 | [6] 0.031 | [7] 0.016 | [8] 0.022 | [9] 0.037 | [10] -0.063

YKT6 (UniProt O15498)
inactive: [1] -0.01 | [2] -0.029 | [3] -0.042 | [4] -0.006 | [5] -0.027 | [6] -0.017 | [7] 0.015 | [8] -0.021 | [9] -0.074 | [10] -0.019

ZMIZ2 (UniProt Q8NF64)
inactive: [1] -0.035 | [2] -0.061 | [3] 0.011 | [4] 0.031 | [5] -0.087 | [6] -0.21 | [7] 0.053 | [8] 0.094 | [9] 0.03 | [10] -0.088

ZCCHC8 (UniProt Q6NZY4)
inactive: [1] 0.045 | [2] -0.033 | [3] 0.008 | [4] -0.073 | [5] 0.016 | [6] 0.012 | [7] 0.003 | [8] -0.019 | [9] 0.026 | [10] -0.041

XPOT (UniProt O43592)
inactive: [1] -0.04 | [2] -0.103 | [3] -0.241 | [4] -0.061 | [5] 0.063 | [6] 0.031 | [7] 0.069 | [8] 0.134 | [9] 0.057 | [10] -0.047

YIPF3 (UniProt Q9GZM5)
inactive: [1] 0.042 | [2] 0.013 | [3] -0.027 | [4] -0.049 | [5] -0.02 | [6] -0.03 | [7] 0.039 | [8] 0.005 | [9] 0.004 | [10] -0.021
